The assay relates to P388 leukemia ip, CD2F1 mice, survival T/C. Nature of the assay: NCI In Vivo Anticancer Drug Screen. Data for tumor model P388 Leukemia (intraperitoneal) in CD2F1 (CDF1) mice. The conditions noted are these: T/C endpoint: median survival time, higher T/C = longer survival.
[1] abbreviates: dose: 50.0 mg/kg/injection, schedule: Q01DX009 (ip), vehicle: saline with Tween-80.
[2] abbreviates: dose: 100.0 mg/kg/injection, schedule: Q01DX009 (ip), vehicle: saline with Tween-80.
Setting [3] is: dose: 200.0 mg/kg/injection, schedule: Q01DX009 (ip), vehicle: saline with Tween-80.
Setting [4] is: dose: 100.0 mg/kg/injection, schedule: Q04DX003 (ip), vehicle: Klucel (hydroxypropylcellulose) (HPC).
[5] abbreviates: dose: 200.0 mg/kg/injection, schedule: Q04DX003 (ip), vehicle: Klucel (hydroxypropylcellulose) (HPC).
Where [6] appears, read: dose: 400.0 mg/kg/injection, schedule: Q04DX003 (ip), vehicle: Klucel (hydroxypropylcellulose) (HPC).
The mark [7] stands for this setting: dose: 12.5 mg/kg/injection, schedule: Q01DX009 (ip), vehicle: saline with Tween-80.
Setting [8] is: dose: 25.0 mg/kg/injection, schedule: Q01DX009 (ip), vehicle: saline with Tween-80.
The mark [9] stands for this setting: dose: 50.0 mg/kg/injection, schedule: Q01DX009 (ip), vehicle: Klucel (hydroxypropylcellulose) (HPC).
[10] abbreviates: dose: 100.0 mg/kg/injection, schedule: Q01DX009 (ip), vehicle: Klucel (hydroxypropylcellulose) (HPC).
Setting [11] is: dose: 200.0 mg/kg/injection, schedule: Q01DX009 (ip), vehicle: Klucel (hydroxypropylcellulose) (HPC).

The list is a part of this screen's results and no random one: it gathers some chemical classes. Other doses and runs of a compound may be missing. T/C: endpoint of the treated group in % of that of the vehicle group. Some doses have a count of surviving animals in place of a T/C: the source files T/C as zero there, which appears to mark a toxic dose or a test without result, not a measured value. Some doses without a T/C left all or most animals alive at the check, yet need not have been tolerated: survival well below the control is almost never listed, so the zero probably covers shortened survival too. Counts of survivors are from the toxicity check (mostly the fifth day) where no day follows; animals may have died later. Schedule codes are those of the source, taken here to give the interval after Q, in days (D) or hours (H), and the number of doses after X. For survival time, this PubChem deposit counts one and a half times the control or more as active, and values a quarter to a half above the control carry no call in these data; other NCI protocols may use other cut-offs. Some entries were tested several times; their values stand side by side, smallest first. Some T/C values are marked as having no survivor count here; that says nothing about deaths at the dose. Some structures stand for samples that the source files as different forms (salt, stereo form or complex); doses refer to the form tested. Some complexes appear as separate parts, the way the source draws them; their charges need not add up. Some T/C values are followed by the survivors on the day toxicity was checked, most often the fifth; without a count or a note in brackets, all were alive then.

For `CC1CC[P+](C)(c2ccccc2)c2ccccc21.F[P-](F)(F)(F)(F)F` (stereo unspecified), the T/C is 93 % of control (dose: 0.78 mg/kg/injection, schedule: Q01DX009 (ip), vehicle: saline); 103 % of control (dose: 1.56 mg/kg/injection, schedule: Q01DX009 (ip), vehicle: saline); 103 % of control (dose: 3.13 mg/kg/injection, schedule: Q01DX009 (ip), vehicle: saline).

Consider `O=C1C(C(Cl)(Cl)Cl)OC(C(Cl)(Cl)Cl)N1C(O)C(Cl)(Cl)Cl` (stereo unspecified), for which the T/C by setting is: under setting [1], 100 % of control; under setting [2], 104 % of control; under setting [3], 105 % of control.

For `CC(C)OP(C)(=O)OC(C)C.CC(C)OP(C)(=O)OC(C)C.CC(C)OP(C)(=O)OC(C)C.CC(C)OP(C)(=O)OC(C)C.[Cd+2].[O-][Cl+3]([O-])([O-])O`, the T/C (dose: 12.5 mg/kg/injection, schedule: Q01DX009 (ip), vehicle: saline) is 112 % of control [survivor count not shown].

As to `CCOC(=O)NC(C)(CC(C)(NC(=O)OCC)P(=O)(O)Nc1ncn[nH]1)P(=O)(O)Nc1ncn[nH]1` (stereo unspecified), the T/C reads like this: (dose: 60.0 mg/kg/injection, schedule: Q01DX005 (ip), vehicle: saline) 103 % of control; (dose: 120.0 mg/kg/injection, schedule: Q01DX005 (ip), vehicle: saline) 103 % of control; (dose: 240.0 mg/kg/injection, schedule: Q01DX005 (ip), vehicle: saline) 94 % of control.

With `CC(C)OP(C)(=O)O.[Cr]`, the T/C reads like this: under setting [4], 97 % of control [survivor count not shown]; under setting [5], 100 % of control [survivor count not shown]; under setting [6], 94 % of control [survivor count not shown].

For the compound `CCOP(=O)(/N=C(\Nc1ccccc1)c1ccccc1)OCC`, the T/C (dose: 6.25 mg/kg/injection, schedule: Q01DX009 (ip), vehicle: distilled water + Tween-80) was 105 % of control; the T/C (dose: 6.25 mg/kg/injection, schedule: Q01DX009 (ip), vehicle: saline with Tween-80) was 98 % of control; the T/C (dose: 12.5 mg/kg/injection, schedule: Q01DX009 (ip), vehicle: distilled water + Tween-80) was 104 and 111 % of control; the T/C under setting [7] is 96 % of control; the T/C (dose: 25.0 mg/kg/injection, schedule: Q01DX009 (ip), vehicle: distilled water + Tween-80) is 97 and 122 % of control; the T/C under setting [8] is 92 % of control. Besides, the T/C is, setting by setting: (dose: 50.0 mg/kg/injection, schedule: Q01DX009 (ip), vehicle: distilled water + Tween-80) 107 and 111 % of control; under setting [1], 101 % of control; (dose: 100.0 mg/kg/injection, schedule: Q01DX009 (ip), vehicle: distilled water + Tween-80) 99 % of control.

Consider `CC(C)OP(C)(=O)O.[Th]`, for which the T/C under setting [1] is 103 % of control [survivor count not shown], the T/C under setting [2] is 105 % of control [survivor count not shown] and the T/C under setting [3] is 99 % of control [survivor count not shown].

In the case of `O=C1C=C(NCCCl)C(=O)C=C1NCCCl`, the T/C was 93 % of control (dose: 25.0 mg/kg/injection, schedule: Q01DX009 (ip), vehicle: Klucel (hydroxypropylcellulose) (HPC)); 97 and 109 % of control under setting [9]; 128 % of control under setting [10]; 98 % of control [5 of 6 alive] under setting [11]. The survivor count under setting [10] is 6 of 6.

In the case of `O=C(CBr)CBr`, the survivor count is, setting by setting: under setting [1], 0 of 6; under setting [2], 0 of 6; under setting [3], 0 of 6.

Take `NC(=O)c1cc(I)cc(I)c1N=NN(CCCl)CCCl`: the T/C is 122 % of control under setting [9], 123 % of control under setting [10] and 145 % of control under setting [11].

Turning to `CCC(O)(C(=O)OCC1=CC[N+]2([O-])CCC(O)C12)c1ccccc1` (stereo unspecified), the T/C (dose: 37.5 mg/kg/injection, schedule: Q01DX009 (ip), vehicle: water) was 146 % of control; the T/C (dose: 75.0 mg/kg/injection, schedule: Q01DX009 (ip), vehicle: water) was 149 % of control; the T/C (dose: 150.0 mg/kg/injection, schedule: Q01DX009 (ip), vehicle: water) is 157 % of control; the T/C (dose: 300.0 mg/kg/injection, schedule: Q01DX009 (ip), vehicle: water) was 166 % of control.

`CCCC/C=N\NC1=NC(C)(CCC2(C)N=C(N/N=C\CCCC)SP2(=O)Nc2ncccn2)P(=O)(Nc2ncccn2)S1` (stereo unspecified): the T/C is 109 % of control (dose: 60.0 mg/kg/injection, schedule: Q01DX005 (ip), vehicle: saline with Tween-80); 100 % of control (dose: 120.0 mg/kg/injection, schedule: Q01DX005 (ip), vehicle: saline with Tween-80); 92 % of control (dose: 240.0 mg/kg/injection, schedule: Q01DX005 (ip), vehicle: saline with Tween-80).

For the compound `CC(C)OP(C)(=O)O`, the T/C is, setting by setting: under setting [7], 104 % of control [survivor count not shown]; under setting [8], 93 % of control [survivor count not shown]; under setting [1], 86 [survivor count not shown] and 87 % of control [survivor count not shown]; (dose: 50.0 mg/kg/injection, schedule: Q01DX009 (ip), vehicle: saline) 95 % of control [survivor count not shown]; (dose: 100.0 mg/kg/injection, schedule: Q01DX001 (ip), vehicle: Klucel (hydroxypropylcellulose) (HPC)) 110 % of control [survivor count not shown]; under setting [2], 95 [survivor count not shown] and 105 % of control [survivor count not shown]. Besides, the T/C is 94 % of control [survivor count not shown] (dose: 100.0 mg/kg/injection, schedule: Q01DX009 (ip), vehicle: saline); 94 % of control [survivor count not shown] (dose: 100.0 mg/kg/injection, schedule: Q04DX002 (ip), vehicle: saline with Tween-80); 91 % of control [survivor count not shown] under setting [4]; 105 % of control [survivor count not shown] (dose: 100.0 mg/kg/injection, schedule: Q04DX003 (ip), vehicle: saline); 99 % of control [survivor count not shown] (dose: 200.0 mg/kg/injection, schedule: Q01DX001 (ip), vehicle: Klucel (hydroxypropylcellulose) (HPC)); 98 % of control [survivor count not shown] (dose: 200.0 mg/kg/injection, schedule: Q01DX009 (ip), vehicle: saline). The T/C was 104 % of control [survivor count not shown] (dose: 200.0 mg/kg/injection, schedule: Q04DX002 (ip), vehicle: saline with Tween-80); 93 % of control [survivor count not shown] under setting [5]; 105 % of control [survivor count not shown] (dose: 200.0 mg/kg/injection, schedule: Q04DX003 (ip), vehicle: saline); 95 % of control [survivor count not shown] (dose: 400.0 mg/kg/injection, schedule: Q01DX001 (ip), vehicle: Klucel (hydroxypropylcellulose) (HPC)); 104 % of control [survivor count not shown] (dose: 400.0 mg/kg/injection, schedule: Q01DX009 (ip), vehicle: saline); 97 % of control [survivor count not shown] (dose: 400.0 mg/kg/injection, schedule: Q04DX002 (ip), vehicle: saline with Tween-80). Moreover, the T/C by setting is: under setting [6], 92 % of control [survivor count not shown]; (dose: 400.0 mg/kg/injection, schedule: Q04DX003 (ip), vehicle: saline) 102 % of control [survivor count not shown].

As to `O=P(S)(SSP(=O)(S)c1ccccc1)c1ccccc1.[Ti].[c-]1[c-][c-][cH-][c-]1.[c-]1[c-][c-][cH-][c-]1` (stereo unspecified), the T/C was 100 % of control (dose: 50.0 mg/kg/injection, schedule: Q01DX005 (ip), vehicle: saline with Tween-80); 100 % of control (dose: 100.0 mg/kg/injection, schedule: Q01DX005 (ip), vehicle: saline with Tween-80); 96 % of control (dose: 200.0 mg/kg/injection, schedule: Q01DX005 (ip), vehicle: saline with Tween-80).

These data come from PubChem BioAssay AID330 (DTP/NCI, 2004).
